Source: paper PMC8497054
These are yes or no findings as the source states them, for the method shown. For some assays here: Binding calls can cover weak binding; strength is not graded here. Tags and fused reporters may be left off the sequences shown.

Legend:
[1] = target: TOC159 M-domain (pGBKT7-TOC159M, BD fusion) (Arabidopsis thaliana); test: two-hybrid; TOC159G or TOC159M as BD baits (pGBKT7), SUMO1, SUMO2, SUMO3 as AD preys (pGADT7), yeast strain Y2H GOLD; growth on SD -Leu -Trp and SD -Leu -Trp -His
[2] = target: TOC159 G-domain (pGBKT7-TOC159G, BD fusion) (Arabidopsis thaliana); test: as above

B1: SUMO3 (pGADT7-SUMO3, AD fusion) (protein, UniProt Q9FLP5 1-111)
chain: MSNPQDDKPIDQEQEAHVILKVKSQDGDEVLFKNKKSAPLKKLMYVYCDRRGLKLDAFAFIFNGARIGGLETPDELDMEDGDVIDACRAMSGGLRANQRQWSYMLFDHNGL
binding [1]: no binding
binding [2]: binds
